PubChem BioAssay AID743266 (National Center for Advancing Translational Sciences (NCATS), 2014)
About 310 (0.076%) of roughly 410,000 compounds were called active. Inconclusive means that the source gave no clear call. Such entries were picked first, then a sample of the others. The call rests on the fitted dose curve; in most records, active means well fitted activation curve with a large enough effect; inconclusive means small, poorly fitted or top-dose-only effect, or another doubt; inactive means no such curve, though single readings can be large or run the other way. Where the call is inconclusive, the potency comes from a doubtful curve fit.

By UniProt entry, the sequences of proteins in these tests, tags left out.
UniProt Q03431, whole entry, looked up: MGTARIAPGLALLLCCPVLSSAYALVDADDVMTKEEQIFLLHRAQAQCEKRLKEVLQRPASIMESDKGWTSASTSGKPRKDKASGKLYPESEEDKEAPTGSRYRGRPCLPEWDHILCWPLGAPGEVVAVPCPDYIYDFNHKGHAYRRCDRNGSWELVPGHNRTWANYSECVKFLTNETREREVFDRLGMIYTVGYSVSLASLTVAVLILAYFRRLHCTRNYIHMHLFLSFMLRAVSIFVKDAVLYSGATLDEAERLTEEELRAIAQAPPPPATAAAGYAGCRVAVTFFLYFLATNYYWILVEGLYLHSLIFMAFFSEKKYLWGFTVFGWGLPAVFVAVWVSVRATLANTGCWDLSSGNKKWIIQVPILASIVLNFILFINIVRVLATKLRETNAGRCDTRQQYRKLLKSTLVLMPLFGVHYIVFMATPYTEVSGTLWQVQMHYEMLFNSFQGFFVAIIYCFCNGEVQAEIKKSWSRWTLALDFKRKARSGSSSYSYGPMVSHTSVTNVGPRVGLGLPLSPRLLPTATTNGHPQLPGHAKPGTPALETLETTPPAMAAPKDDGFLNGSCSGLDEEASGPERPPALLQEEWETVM

target: Parathyroid hormone/parathyroid hormone-related peptide receptor (Homo sapiens) (UniProt Q03431); experiment: qHTS for PTHR1 Agonists: Primary Screen; conditions: HEK293 GP2 PTHR1 cells, GloSensor cAMP luminescence, 1 h; activation: at 115 µM (top of the series) unless noted; series mostly up to 115 µM; further: nearly all actives have a fitted effect of over 55% in size
Summary of the method: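 HEK-293-derived GP2 cells expressing PTHR1 and a GloSensor cAMP reporter, 3,000/well, plated overnight, given luciferin plus IBMX (each 0.5 mM as added) for 1 h at 37 °C, then compound for 1 h at 37 °C. Luminescence was read after 15 min at room temperature.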
Potency means the concentration at half of the fitted maximal effect.

Potency, inconclusive:
O=C(NCCCN1CCCCC1)C1CC(=O)N(CCc2ccccc2)C1 (stereo not given) 31.6 µM [activator, partial curve, poor fit]
O=C1c2cccnc2C(O)N1Cc1ccc(F)cc1 (stereo not given) 12.6 µM [activator, partial curve, poor fit]
CCN(CC(=O)NC1CC1)S(=O)(=O)c1ccc(C)cc1 178 µM [activator, partial curve, poor fit]
CC1(C)N=C(N)N=C(N)N1c1ccc(OCCCOc2ccccc2)c(Cl)c1 126 µM [activator, single point]
Cc1cc(NC(=O)c2ccccc2)ccc1NC(=O)c1ccccc1Cl 50.1 µM [activator, partial curve, poor fit]
Cc1ccc(NS(=O)(=O)c2ccc(N/N=C/c3ccccc3OCC(=O)O)c([N+](=O)[O-])c2)c(C)c1 141 µM [activator, single point]
O=C(COC(=O)CNC(=O)C1CCCCC1)Nc1ccc(Cl)cc1F 112 µM [activator, partial curve, poor fit]
Cc1ccccc1NC(=O)COC(=O)c1cccc(S(=O)(=O)N2CCCCC2)c1 126 µM [activator, single point]
CCCC/C(C)=N/NC(=O)C(=O)NCCc1ccccc1 0.501 µM [activator, full curve, poor fit]
COc1ccc(CC(C)N2CCN(c3ccccc3)CC2)cc1OC (stereo not given) 35.5 µM [activator, single point]
Cc1ccc(N=c2c([N+](=O)[O-])nn(-c3ccccc3)n2O)c(C)c1 4.47 µM [activator, single point]
CCCCCCCCCCCCCCCC[n+]1cccc(C(=O)N(CC)CC)c1 112 µM [activator, single point]
Cn1cc(C(=O)c2cccc(Cl)c2Cl)cc1C(=O)O 35.5 µM [activator, single point]
Cc1cccc2sc(N(CCN(C)C)C(=O)c3ccc4c(c3)OCCO4)nc12 15.8 µM [activator, partial curve]
CCC(=O)Oc1ccc(NC(=O)c2ccco2)cc1 14.1 µM [activator, partial curve]
NC(=O)CSc1nnc(-c2ccco2)n1-c1ccc(F)cc1 14.1 µM [activator, partial curve]
O=C(COc1ccccc1O)NCCN1CCOCC1 44.7 µM [activator, single point]
COc1ccc(C)cc1NC(=O)CSc1nnc(CC(=O)Nc2cccc(C(F)(F)F)c2)n1C 44.7 µM [activator, single point]
Cc1cc(C)c(NC(=S)N(CCc2ccncc2)C(C)C)c(C)c1 126 µM [activator, single point]
Cc1cc(C)c2oc(-c3ccc(Cl)c(NC(=O)c4cccs4)c3)nc2c1 4.47 µM [activator, partial curve, poor fit]
C=C(C)C(=O)Nc1cccnc1Oc1ccc(F)cc1 100 µM [activator, single point]
COC(=O)c1sccc1NC(=O)CSc1ccc(Cl)cc1 63.1 µM [activator, single point]
Cc1ccccc1NC(=O)CCSc1nnnn1-c1ccccc1 17.8 µM [activator, single point]
NC(=S)NN=C1CCCCCCCC1 79.4 µM [activator, partial curve, poor fit]
COc1cc(/C=N/N2CCN(c3ccccc3)CC2)cc(OC)c1OC(C)=O 112 µM [activator, single point]
Cc1ccc(NC(=O)NC2CCCCCCC2)cc1C 126 µM [activator, single point]
CCC1(C)Cc2ccccc2C(=S)N1 (stereo not given) 0.767 µM [activator, full curve, poor fit]
CCCSc1nnc2[nH]c(=O)cc(C)n12 126 µM [activator, single point]
CC(=O)c1c(C)n([O-])c2ccc(C)cc2[n+]1=O 50.1 µM [activator, partial curve, poor fit]
CC(C)Oc1ccc(C2CNC(=O)C2)cc1 (stereo not given) 141 µM [activator, single point]
C/C(N)=C(/C#N)C(=O)CN1CCCCC1 3.98 µM [activator, single point]
OCCNc1ncnc2c1cnn2Cc1ccccc1 50.1 µM [activator, partial curve, poor fit]
COc1ccc(C2(C(N)=O)CCCCC2)cc1OC 2.82 µM [activator, single point]

Random excerpt: 4 compounds from above.
Potency, inconclusive:
Cc1ccc(N=c2c([N+](=O)[O-])nn(-c3ccccc3)n2O)c(C)c1 4.47 µM [activator, single point]
Cc1cccc2sc(N(CCN(C)C)C(=O)c3ccc4c(c3)OCCO4)nc12 15.8 µM [activator, partial curve]
Cc1cc(NC(=O)c2ccccc2)ccc1NC(=O)c1ccccc1Cl 50.1 µM [activator, partial curve, poor fit]
CCCSc1nnc2[nH]c(=O)cc(C)n12 126 µM [activator, single point]

Next part:

outcome, inactive:
Cc1ccsc1CN(C(=O)COc1ccccc1Cl)C1CCS(=O)(=O)C1 (stereo not given)
O=C(CCC(=O)Nc1ccccc1Cl)NNS(=O)(=O)c1ccc(Cl)cc1
O=C(COc1ccc(C(=O)c2ccccc2)cc1)NC1CCCCC1
COc1ccc(C(=O)NCC(=O)OCC(=O)N2CC(C)CC(C)C2)cc1 (stereo not given) inactive [at 57.5 µM]
O=C(Nc1nn(Cc2ccc(Cl)cc2)cc1Br)c1ccc(COc2ccccc2Cl)o1
CCOc1ccc(C(=O)NC(=S)Nc2ccccc2N2CCOCC2)cc1Br
O=C(C1CCCN(Cc2cccnc2)C1)N1CCCCC1 (stereo not given)
CCOc1ccc(N2C(=O)C3C4C=CC(CC4)C3C2=O)c([N+](=O)[O-])c1 (stereo not given)
COc1cccc(-c2oc3c(c2C#CCCO)C(O)CCC3)c1 (stereo not given)
COc1ccc(CCNC(=O)c2csc3c2CCCC3)cc1

activation, inconclusive:
Cc1oc2c(c1C(=O)Nc1ccc(OC(F)(F)F)cc1)C1=NCCN1C=N2 51.4% [activator]
O=C(CN1C(=O)CSc2ccc(S(=O)(=O)N3CCCCC3)cc21)NCc1ccccc1 42.7% [activator]
C/C(CC(=O)Nc1cccnc1)=N\NC(=O)C(C)Oc1ccc(Cl)cc1Cl (stereo not given) 31.9% [activator]
COC(=O)C(NC=O)C(O)(Cc1ccccc1)C(F)(F)F (stereo not given) 38.6% [activator]
O=C(Cc1ccc(Cl)cc1)Nc1cccc(S(=O)(=O)N2CCCCC2)c1 -42.4% [activator]
C/C(CC(=O)Nc1ccc(N(C)C)cc1)=N\NC(=O)c1ccc(F)cc1 37% [activator]
COc1ccccc1OCc1ccc(C(=O)NC(C)c2ccccc2)o1 (stereo not given) -33.9% [activator]
COc1ccccc1NC(=O)COc1cc(Br)c(CNCCCN2CCOCC2)cc1OC 91.3% [activator]
CC1CCc2nc3ccc(S(=O)(=O)N4CCC(C(=O)N5CCCCCC5)CC4)cc3c(C(=O)O)c2C1 (stereo not given) -42.9% [activator]
N[C@@H](Cc1cc(I)c(Oc2ccc(O)c(I)c2)c(I)c1)C(=O)O 47.9% [activator]
CC(C)N(C(=O)COC(=O)c1ccc(Cl)nc1)C(C)C 35.4% [activator]
CCC(C)NC(=O)Cn1c(=O)n(-c2ccc(C)c(C)c2)c(=O)c2c3c(sc21)CCCCC3 (stereo not given) -46.6% [activator]
CC1CCCCN1C(=O)C1CCN(c2nc(-c3ccccc3)nc3c2CCC3)CC1 (stereo not given) -84.2% [activator]
CSc1nc(NCc2ccco2)c2sc3nc(C(C)C)c4c(c3c2n1)CC(C)(C)OC4 33.2% [activator] [at 57.5 µM]
O=C(NN1C(=O)/C(=C\c2cccnc2)SC1=S)c1ccco1 42.9% [activator]
O=C(NCc1ccc(F)cc1)c1ccc2nc(N3CCCCC3)sc2c1 -53.2% [activator]
Cc1cc(-c2ccc(C)c(S(=O)(=O)NCC3CCN(Cc4ccc(F)cc4)CC3)c2)on1 -85.5% [activator]

activation, inactive:
O=C(CNc1ccccc1)N/N=C/c1c[nH]c2ccccc12 -40.6%
O=C(Nc1nc2ccccc2[nH]1)c1ccc(F)c(S(=O)(=O)N2CCOCC2)c1 -8.79%
O=C(Cc1ccc(F)cc1)c1ccc(O)cc1O -16.3% [at 57.5 µM]
C[C@@H](CN1CCC(Cc2ccccc2)CC1)[C@@H](O)c1ccc(O)cc1 -5.96%
CC1CCN(CCOCCOc2ccccc2-c2ccccc2)CC1 -5.62%
Oc1ccccc1CNc1nc2ccccc2n1CCN1CCCCC1 -16.6%
Cc1ccccc1C(=O)Nc1cccc(C(=O)Nc2ccccc2C(=O)O)c1 -38.6%
C=CCc1c(Cl)nc(C)nc1NCc1ccccc1 -22.5%
Cc1cc2c(cc1NS(=O)(=O)c1cccc(C#N)c1)n(C)c(=O)c(=O)n2C 7.93%
CN(Cc1ccccc1)C(=O)COC(=O)c1ccccc1SCC(=O)N1CCCC1 -35.4%
CCN(CC)CCOC(=O)c1c(C)oc2ccc(O)cc12 0.627% [at 57.5 µM]
COc1nc(C)nc2c1sc1nc3c(cc12)COC(C)(C)C3 -12.3%
COc1ccc(N=C2NC(=O)/C(=C/c3ccco3)S2)cc1 -1.8%
CC(/C=N/NC(=O)c1nnn(-c2nonc2N)c1CN(C)C)=C\c1ccco1 0.034%
CC1=NN(c2nc(-c3ccccc3)cs2)C(=O)C1 -3.54% [at 57.5 µM]
